PubChem BioAssay AID504793 | Drosophila RNAi Screening Center, 2011
Test: 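Knock-downs allowing continued mitosis even though DNA is damaged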 (primary screen). Cells: Drosophila S2R+ cells. Reagents: long dsRNA against Drosophila genes, about 0.25 µg dsRNA per well. Timing: 4 days of dsRNA, then 4 hours of drug before read-out. Treatment: doxorubicin 0.5 µM for 4 hours to cause double-strand breaks, in cells also given a low, harmless dose of dsRNA against nbs to sensitise the assay. Read-out: 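Per-well count of mitotic cells stained for phospho-histone H3 after doxorubicin exposure, used as mitotic index; counts are raw and not normalised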. Scale: mitotic cells: higher = more cells in mitosis, weaker G2 arrest. Call rule: 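a call needs confirmation in secondary tests, with other dsRNAs and a check of mitotic timing without damage, not just a high primary count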. Calls: active = confirmed in follow-up tests; inactive = not confirmed.
The deposit covers about 23,000 reagents; shown is a random part of those that have a named target and a result. In the full data, 62 (0.27%) were called active. 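Calls come from follow-up tests whose scores are not deposited, so confirmed genes may have low counts here; counts are not normalised per plate.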 Raw values vary from plate to plate and are shown uncorrected. A plus sign joins genes that one reagent is predicted to hit.

The first 6 entries, ahead of the listing:
| Target gene | DRSC id | mitotic cells, replicate 1 | mitotic cells, replicate 2 | Outcome |
| --- | --- | --- | --- | --- |
| CG5359 | DRSC15780 | 9 | – | inactive |
| Ho | DRSC14939 | 4 | – | inactive |
| CG11334 | DRSC14066 | 8 | – | inactive |
| CG11334 | DRSC14302 | 3 | – | inactive |
| CG31248 | DRSC22722 | 8 | – | inactive |
| CG33964 + CG13175 | DRSC06300 | 1 | – | inactive |

Results, repeating the preview:
| Target gene | DRSC id | mitotic cells, replicate 1 | mitotic cells, replicate 2 | Outcome |
| --- | --- | --- | --- | --- |
| CG5359 | DRSC15780 | 9 | – | inactive |
| Ho | DRSC14939 | 4 | – | inactive |
| CG11334 | DRSC14066 | 8 | – | inactive |
| CG11334 | DRSC14302 | 3 | – | inactive |
| CG31248 | DRSC22722 | 8 | – | inactive |
| CG33964 + CG13175 | DRSC06300 | 1 | – | inactive |
| CG33964 + CG13175 | DRSC06301 | 3 | – | inactive |
| CG33964 + CG13175 | DRSC07184 | 3 | – | inactive |
| CG13010 | DRSC19529 | 9 | – | inactive |
| CG13010 | DRSC27744 | 6 | – | inactive |
| Sans | DRSC06357 | 7 | – | inactive |
| Sans | DRSC27928 | 6 | – | inactive |
| CG31948 | DRSC00740 | 2 | – | inactive |
| CG4611 | DRSC10434 | 2 | – | inactive |
| CG4611 | DRSC26382 | 6 | – | inactive |
| NK7.1 | DRSC25000 | 7 | – | inactive |
| Eaf | DRSC05050 | 18 | – | inactive |
| Eaf | DRSC06052 | 8 | – | inactive |
| Eaf | DRSC22028 | 14 | – | inactive |
| Eaf | DRSC27471 | 6 | – | inactive |
| Pcf11 | DRSC23350 | 4 | – | inactive |
| CG12239 | DRSC17832 | 7 | – | inactive |
| CG12239 | DRSC27969 | 4 | – | inactive |
| CG14673 (retired record) | DRSC12259 | 2 | – | inactive |
| CG6000 | DRSC15938 | 9 | – | inactive |
| CG4025 | DRSC18523 | 11 | – | inactive |
| GCC185 | DRSC15493 | 5 | – | inactive |
| CG4622 | DRSC04479 | 8 | – | inactive |
| Ranbp16 | DRSC20160 | 12 | – | inactive |
| alpha-Spec | DRSC08704 | 8 | – | inactive |
| por | DRSC20362 | 9 | – | inactive |
| por | DRSC29877 | 12 | – | inactive |
| CG14752 | DRSC06488 | 3 | – | inactive |
| Cdk5alpha | DRSC03290 | 8 | – | inactive |
| Cdk5alpha | DRSC23301 | 6 | – | inactive |
| mRpS5 | DRSC21380 | 13 | – | inactive |
| CrebB | DRSC20232 | 11 | – | inactive |
| CrebB | DRSC23558 | 6 | – | inactive |
| Cda4 | DRSC20623 | 3 | – | inactive |
| Cda4 | DRSC20641 | 6 | – | inactive |
| Cda4 | DRSC20642 | 4 | – | inactive |
| CG3690 | DRSC18170 | 8 | – | inactive |
| CG3690 | DRSC18641 | 13 | – | inactive |
| SCCRO3 | DRSC06359 | 2 | – | inactive |
| SCCRO3 | DRSC26409 | 1 | – | inactive |
| SuUR | DRSC11292 | 1 | – | inactive |
| t-Grip84 | DRSC10904 | 9 | – | inactive |
| CG13667 | DRSC10028 | 9 | – | inactive |
| CG15482 | DRSC02492 | 3 | – | inactive |
| fal | DRSC11087 | 8 | – | inactive |
| CG13127 | DRSC02223 | 7 | – | inactive |
| CG13127 | DRSC29726 | 6 | – | inactive |
| CG16852 | DRSC01876 | 3 | – | inactive |
| CG8774 | DRSC16445 | 5 | – | inactive |
| CG13403 | DRSC19535 | 9 | – | inactive |
| CG13403 | DRSC26850 | 7 | – | inactive |
| Cpr12A | DRSC19722 | 11 | – | inactive |
| CG4928 | DRSC19342 | 8 | – | inactive |
| CG4928 | DRSC29007 | 10 | – | inactive |
| CG7079 | DRSC16192 | 8 | – | inactive |
| CG7079 | DRSC29827 | 4 | – | inactive |
| Tdg | DRSC17119 | 6 | – | inactive |
| Tdg | DRSC17169 | 20 | – | inactive |
| Lrch | DRSC02996 | 4 | – | inactive |
| Lrch | DRSC29145 | 5 | – | inactive |
| ccb | DRSC20501 | 6 | – | inactive |
| CG14286 | DRSC14767 | 5 | – | inactive |
| CG14286 | DRSC29125 | 7 | – | inactive |
| mtgo | DRSC02769 | 5 | – | inactive |
| mtgo | DRSC21392 | 11 | – | inactive |
| mtgo | DRSC21743 | 11 | – | inactive |
| mtgo | DRSC27702 | 4 | – | inactive |
| CG32106 | DRSC09219 | 9 | – | inactive |
| betaNACtes4 | DRSC19801 | 12 | – | inactive |
| CG42560 + CG42559 | DRSC21873 | 8 | – | inactive |
| png | DRSC18582 | 2 | – | inactive |
| png | DRSC26812 | 5 | – | inactive |
| CG30334 | DRSC05345 | 9 | – | inactive |
| CG30334 | DRSC24086 | 6 | – | inactive |
| AANATL3 | DRSC02089 | 3 | – | inactive |
| MtnD | DRSC22733 | 7 | – | inactive |
| lncRNA:sphinx | DRSC17199 | 9 | – | inactive |
| Ugt37D1 | DRSC02645 | 3 | – | inactive |
| Ugt37D1 | DRSC23980 | 3 | – | inactive |
| Blos4 | DRSC10151 | 5 | – | inactive |
| Blos4 | DRSC27533 | 4 | – | inactive |
| Ctu2 | DRSC02024 | 2 | – | inactive |
| Ctu2 | DRSC29317 | 5 | – | inactive |
| CG5382 | DRSC15786 | 10 | – | inactive |
| CG13723 | DRSC10052 | 4 | – | inactive |
| Tmlh | DRSC15563 | 6 | – | inactive |
| Galphao | DRSC07430 | 7 | – | inactive |
| Galphao | DRSC29710 | 4 | – | inactive |
| TwdlB | DRSC16050 | 14 | – | inactive |
| TwdlB | DRSC25071 | 3 | – | inactive |
| Arp5 | DRSC16350 | 6 | – | inactive |
| Arp5 | DRSC28688 | 9 | – | inactive |
| Ntf-2 | DRSC20552 | – | – | inactive |
| Ntf-2 | DRSC25597 | 6 | – | inactive |
| CG11333 | DRSC14301 | 4 | – | inactive |
| CG14659 | DRSC12245 | 1 | – | inactive |
| CG16790 | DRSC15156 | 10 | – | inactive |
| mesh | DRSC14472 | 10 | 8 | inactive |
| mesh | DRSC15098 | 10 | – | inactive |
| mesh | DRSC15099 | 18 | – | inactive |
| Zwilch | DRSC15376 | 13 | – | inactive |
| lab | DRSC12627 | 10 | – | inactive |
| lab | DRSC25048 | 2 | – | inactive |
| CCT7 | DRSC16410 | 114 | – | inactive |
| CG30393 | DRSC04253 | 7 | – | inactive |
| CG30393 | DRSC24833 | 3 | – | inactive |
